Measured values: patent publication US20240109962A1
Results are given in words; binding and its absence hold for the method and conditions named. Some entries that bind do so weakly or less than the wild type.

Legend:
[1] = molecular target: LILRB1-His; experiment: ELISA on recombinant His-tagged protein, OD450
[2] = molecular target: LILRB3-His; experiment: ELISA on recombinant His-tagged protein, OD450

B1: Antibody 10D7 (antibody, V domains shown)
VH: EVKLVESGGGLVKPGGSLKLSCAASGFTFSSYGMSWVRQTPEKRLEWVATISGAFSYTYYPDSVKGRFTISRDNAKNNLYLQMSSLRSEDTAFYYCARHDNSLYYAMDYWGQGTSVTVSS
VL: NVQITQSPSYLAASPGETITINCRTSKSITKYLAWYQEQPGKTNKLLIYSGSTLQSGIPSRFSGSGSGTDFTLTISSLEPEDFAMYYCQQHNEYPWTFGGGTKLEIK
[1]
  binding: binds
[2]
  binding: binds

B2: Antibody 15A6 (antibody, V domains shown)
VH: EVKLVESGGDLVKPGGSLKLSCAASGFTFSTYGMSWVRQTPEKRLEWVATISGSNSYTYYPDSVKGRFTISRDNAKNNLYLQMSSLRSEDTALYYCTRHENGYYFYAMDYWGQGTSVTVSS
VL: DVQITQSPSYLTASPGETITINCRSSKSITKYLAWYQEKPGKTNKLLIYSGSTLQSGIPSRFSGSGSGTDFTLTISSLEPEDFAMYYCQQHSEYPWTFGGGTRLEIK
[1]
  binding: binds
[2]
  binding: binds

B3: Antibody 13C4 (antibody, V domains shown)
VH: QIHLVQSGPELKKPGETVKISCKASGYTFTNYGMNWVKQAPGKALKWMGWMNTYIGEPTYADDFKGRFAFSLETSASTAYLQINNLKNEDMATYFCARRGDYASYYFDYWGQGTTLTVSS
VL: DIVLTQSPATLSVTPGDSVSLSCRASQNINNNLHWYHQKSHESPRLLIKYASQSISGIPSRVSGSGSGTDFTLSIVTVETEDFGMFFCQQSNSWPHTFGGGTKLEIR
[1]
  binding: binds
[2]
  binding: binds

B4: Antibody 13D12 (antibody, V domains shown)
VH: EIQLQQSGPELVKPGASVKVSCKASGYAFTSHNIYWVKQSHGKSLEWIGYIDPYNGGSTYNQKFKDKATLTVDKSSSTAYMHLKSLTSEDSAVYYCARGDYRDFWGQGTTLTVSS
VL: DIQMTQTTSSLSASLGDRVTIRCSASQAINNYLNWYQQKPDGTVKLLIYYTSSLHSGVPSRFSGSGSGADYSLTISNLEPEDIATYYCQQYSHLPWTFGGGTTLEIK
[1]
  binding: binds

B5: Antibody 7C12 (antibody, V domains shown)
VH: EVQLQQSGPDLVKPGASVKISCKASGYIFTDFNMHWVKQSHGKSLEWIGYIYPFNGGTGYNQKFENMATLTVDISSSTAYMEVRSLTSEDSAVYYCARRGGRGHFDYWGQGTTLTVSS
VL: DIQMTQSPASLSASVGETVTVTCRASGNIHNYLAWYQQKQGKSPQLLVYNAKTLADGVPSRFSGSGSGIQFSLKINSLQPEDFGSYYCQHFWNTPFTFGSGTKLEIK
[1]
  binding: binds
[2]
  binding: binds

B6: Antibody 13C5 (antibody, V domains shown)
VH: QVQLKQSGPGLVQPSQSLSITCTVSGFSLTTFGVHWVRQSPGKGLEWLGVIWRGGSTDYNAAFMSRLSITKDNSKSQVFFKMNSLQADDTAIYYCAKNPYQYGSSHYYAMDYWGQGTSVTVSS
VL: DIVMTQSPSSLSVSAGEKVTMSCKSSQSLLNSGNQKNYLAWYQQKPGQPPKLLIYGASTRESGVPDRFTGSGSGTVFTLTISSVQAEDLAVYYCQNDHILPFTFGSGTKLEIK
[1]
  binding: binds
